# Measured values as given in the supplement of paper PMC8728848.
# The other results are listed elsewhere or left out.
# How the values were obtained:
# Assay in all cases: glycan array binding signal (z-score within array); higher = stronger binding
# Settings in all cases: glycan notation: IUPAC condensed, linker removed
# [1] = biological target: Gal(b1-4)GalNAc(a1-3)[Fuc(a1-2)]Gal(b1-4)GlcNAc
# Method in brief: (§1)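 Negative Z-scores can be read as non-binding. The Z-score is calculated within each array and then averaged across arrays of one protein sequence at different concentrations or buffers and across linkers. Arrays, 3228 in all, were curated from the Consortium for Functional Glycomics database and kept only where the protein sequence was available.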
# [2] = biological target: Gal(b1-4)GalNAc(b1-3)[Fuc(a1-2)]Gal(b1-4)GlcNAc
# Method in brief: as §1
# Gal(b1-4)Glc = biological target: Gal(b1-4)Glc
# Method in brief: as §1
# Gal(b1-4)Glc6S = biological target: Gal(b1-4)Glc6S
# Method in brief: as §1
# Gal(b1-4)GlcNAc = biological target: Gal(b1-4)GlcNAc
# Method in brief: as §1
# [3] = biological target: Gal(b1-4)GlcNAc(a1-6)Gal(b1-4)GlcNAc
# Method in brief: as §1
# Gal(b1-4)GlcNAc(b1-2)Man = biological target: Gal(b1-4)GlcNAc(b1-2)Man
# Method in brief: as §1
# [4] = biological target: Gal(b1-4)GlcNAc(b1-2)Man(a1-3)Man(b1-4)GlcNAc(b1-4)GlcNAc
# Method in brief: as §1
# [5] = biological target: Gal(b1-4)GlcNAc(b1-2)Man(a1-3)[Gal(b1-4)GlcNAc(b1-2)Man(a1-6)]Man(b1-4)GlcNAc(b1-4)GlcNAc
# Method in brief: as §1
# [6] = biological target: Gal(b1-4)GlcNAc(b1-2)Man(a1-3)[Gal(b1-4)GlcNAc(b1-2)Man(a1-6)]Man(b1-4)GlcNAc(b1-4)[Fuc(a1-6)]GlcNAc
# Method in brief: as §1
# [7] = biological target: Gal(b1-4)GlcNAc(b1-2)Man(a1-3)[Gal(b1-4)GlcNAc(b1-2)][GlcNAc(b1-4)]Man(b1-4)GlcNAc(b1-4)GlcNAc
# Method in brief: as §1
# [8] = biological target: Gal(b1-4)GlcNAc(b1-2)Man(a1-3)[GlcNAc(b1-2)Man(a1-6)]Man(b1-4)GlcNAc(b1-4)GlcNAc
# Method in brief: as §1
# [9] = biological target: Gal(b1-4)GlcNAc(b1-2)Man(a1-3)[Man(a1-6)]Man(b1-4)GlcNAc(b1-4)GlcNAc
# Method in brief: as §1
# [10] = biological target: Gal(b1-4)GlcNAc(b1-2)Man(a1-6)Man(b1-4)GlcNAc(b1-4)GlcNAc
# Method in brief: as §1
# [11] = biological target: Gal(b1-4)GlcNAc(b1-2)Man(a1-6)[GlcNAc(b1-2)Man(a1-3)]Man(b1-4)GlcNAc(b1-4)GlcNAc
# Method in brief: as §1
# [12] = biological target: Gal(b1-4)GlcNAc(b1-2)Man(a1-6)[Man(a1-3)]Man(b1-4)GlcNAc(b1-4)GlcNAc
# Method in brief: as §1
# [13] = biological target: Gal(b1-4)GlcNAc(b1-2)[Gal(b1-4)GlcNAc(b1-4)]Man(a1-3)[Gal(b1-4)GlcNAc(b1-2)Man(a1-6)]Man(b1-4)GlcNAc(b1-4)GlcNAc
# Method in brief: as §1
# [14] = biological target: Gal(b1-4)GlcNAc(b1-2)[Gal(b1-4)GlcNAc(b1-4)]Man(a1-3)[Gal(b1-4)GlcNAc(b1-2)[Gal(b1-4)GlcNAc(b1-6)]Man(a1-6)]Man(b1-4)GlcNAc(b1-4)GlcNAc
# Method in brief: as §1
# [15] = biological target: Gal(b1-4)GlcNAc(b1-2)[Gal(b1-4)GlcNAc(b1-4)]Man(a1-3)[GlcNAc(b1-4)][Gal(b1-4)GlcNAc(b1-2)Man(a1-6)]Man(b1-4)GlcNAc(b1-4)GlcNAc
# Method in brief: as §1
# [16] = biological target: Gal(b1-4)GlcNAc(b1-2)[Gal(b1-4)GlcNAc(b1-4)]Man(a1-3)[GlcNAc(b1-4)][Gal(b1-4)GlcNAc(b1-2)[Gal(b1-4)GlcNAc(b1-6)]Man(a1-6)]Man(b1-4)GlcNAc(b1-4)GlcNAc
# Method in brief: as §1
# [17] = biological target: Gal(b1-4)GlcNAc(b1-2)[Gal(b1-4)GlcNAc(b1-6)]Man(a1-6)[Gal(b1-4)GlcNAc(b1-2)Man(a1-3)]Man(b1-4)GlcNAc(b1-4)GlcNAc
# Method in brief: as §1
# [18] = biological target: Gal(b1-4)GlcNAc(b1-2)[Gal(b1-4)GlcNAc(b1-6)]Man(a1-6)[GlcNAc(b1-4)][Gal(b1-4)GlcNAc(b1-2)Man(a1-3)]Man(b1-4)GlcNAc(b1-4)GlcNAc
# Method in brief: as §1
# [19] = biological target: Gal(b1-4)GlcNAc(b1-3)Gal(b1-3)GlcNAc
# Method in brief: as §1
# [20] = biological target: Gal(b1-4)GlcNAc(b1-3)Gal(b1-4)Glc
# Method in brief: as §1
# [21] = biological target: Gal(b1-4)GlcNAc(b1-3)Gal(b1-4)GlcNAc
# Method in brief: as §1
# [22] = biological target: Gal(b1-4)GlcNAc(b1-3)Gal(b1-4)GlcNAc(b1-3)Gal(b1-4)GlcNAc
# Method in brief: as §1
# [23] = biological target: Gal(b1-4)GlcNAc(b1-3)Gal(b1-4)[Fuc(a1-3)GlcNAc(b1-6)]Gal(b1-4)Glc
# Method in brief: as §1
# [24] = biological target: Gal(b1-4)GlcNAc(b1-3)Gal(b1-4)[Fuc(a1-3)]GlcNAc(b1-3)Gal(b1-4)[Fuc(a1-3)]GlcNAc
# Method in brief: as §1
# [25] = biological target: Gal(b1-4)GlcNAc(b1-3)GalNAc
# Method in brief: as §1
# [26] = biological target: Gal(b1-4)GlcNAc(b1-3)[Gal(b1-4)GlcNAc(b1-6)]Gal(b1-4)GlcNAc
# Method in brief: as §1
# [27] = biological target: Gal(b1-4)GlcNAc(b1-3)[Gal(b1-4)GlcNAc(b1-6)]GalNAc
# Method in brief: as §1
# [28] = biological target: Gal(b1-4)GlcNAc(b1-3)[GlcNAc(b1-6)]Gal(b1-4)GlcNAc
# Method in brief: as §1
# [29] = biological target: Gal(b1-4)GlcNAc(b1-6)Gal(b1-4)GlcNAc
# Method in brief: as §1
# [30] = biological target: Gal(b1-4)GlcNAc(b1-6)GalNAc
# Method in brief: as §1
# [31] = biological target: Gal(b1-4)GlcNAc(b1-6)[Gal(b1-3)]GalNAc
# Method in brief: as §1
# Gal(b1-6)Gal = biological target: Gal(b1-6)Gal
# Method in brief: as §1
# Gal3S(b1-3)GalNAc = biological target: Gal3S(b1-3)GalNAc
# Method in brief: as §1
# Gal3S(b1-3)GlcNAc = biological target: Gal3S(b1-3)GlcNAc
# Method in brief: as §1
binder,measurement,setting,value
"MFG-E8 (Homo sapiens), Q08431 (protein) MPRPRLLAALCGALLCAPSLLVALDICSKNPCHNGGLCEEISQEVRGDVFPSYTCTCLKGYAGNHCETKCVEPLGLENGNIANSQIAASSVRVTFLGLQHWVPELARLNRAGMVNAWTPSSNDDNPWIQVNLLRRMWVTGVVTQGASRLASHEYLKAFKVAYSLNGHEFDFIHDVNKKHKEFVGNWNKNAVHVNLFETPVEAQYVRLYPTSCHTACTLRFELLGCELNGCANPLGLKNNSIPDKQITASSSYKTWGLHLFSWNPSYARLDKQGNFNAWVAGSYGNDQWLQVDLGSSKEVTGIITQGARNFGSVQFVASYKVAYSNDSANWTEYQDPRTGSSKIFPGNWDNHSHKKNLFETPILARYVRILPVAWHNRIALRLELLGC",glycan array binding signal (z-score),[1],-0.634
same,glycan array binding signal (z-score),[2],-0.081
same,glycan array binding signal (z-score),Gal(b1-4)Glc,-0.674
same,glycan array binding signal (z-score),Gal(b1-4)Glc6S,-0.377
same,glycan array binding signal (z-score),Gal(b1-4)GlcNAc,-0.753
same,glycan array binding signal (z-score),[3],-0.439
same,glycan array binding signal (z-score),Gal(b1-4)GlcNAc(b1-2)Man,-0.61
same,glycan array binding signal (z-score),[4],-0.14
same,glycan array binding signal (z-score),[5],2.08
same,glycan array binding signal (z-score),[6],-0.623
same,glycan array binding signal (z-score),[7],-0.322
same,glycan array binding signal (z-score),[8],0.125
same,glycan array binding signal (z-score),[9],-0.19
same,glycan array binding signal (z-score),[10],1.26
same,glycan array binding signal (z-score),[11],0.824
same,glycan array binding signal (z-score),[12],-0.035
same,glycan array binding signal (z-score),[13],1.32
same,glycan array binding signal (z-score),[14],-0.253
same,glycan array binding signal (z-score),[15],1.14
same,glycan array binding signal (z-score),[16],-0.395
same,glycan array binding signal (z-score),[17],-0.137
same,glycan array binding signal (z-score),[18],-0.008
same,glycan array binding signal (z-score),[19],-0.804
same,glycan array binding signal (z-score),[20],-0.172
same,glycan array binding signal (z-score),[21],0.707
same,glycan array binding signal (z-score),[22],0.656
same,glycan array binding signal (z-score),[23],1.53
same,glycan array binding signal (z-score),[24],-0.365
same,glycan array binding signal (z-score),[25],-0.193
same,glycan array binding signal (z-score),[26],0.41
same,glycan array binding signal (z-score),[27],-0.287
same,glycan array binding signal (z-score),[28],-0.5
same,glycan array binding signal (z-score),[29],-0.668
same,glycan array binding signal (z-score),[30],-0.008
same,glycan array binding signal (z-score),[31],-0.591
same,glycan array binding signal (z-score),Gal(b1-6)Gal,-0.061
same,glycan array binding signal (z-score),Gal3S(b1-3)GalNAc,-0.625
same,glycan array binding signal (z-score),Gal3S(b1-3)GlcNAc,-0.164

# Two entries from above, tab-delimited:
binder	measurement	setting	value
MFG-E8 (Homo sapiens), Q08431 (protein) MPRPRLLAALCGALLCAPSLLVALDICSKNPCHNGGLCEEISQEVRGDVFPSYTCTCLKGYAGNHCETKCVEPLGLENGNIANSQIAASSVRVTFLGLQHWVPELARLNRAGMVNAWTPSSNDDNPWIQVNLLRRMWVTGVVTQGASRLASHEYLKAFKVAYSLNGHEFDFIHDVNKKHKEFVGNWNKNAVHVNLFETPVEAQYVRLYPTSCHTACTLRFELLGCELNGCANPLGLKNNSIPDKQITASSSYKTWGLHLFSWNPSYARLDKQGNFNAWVAGSYGNDQWLQVDLGSSKEVTGIITQGARNFGSVQFVASYKVAYSNDSANWTEYQDPRTGSSKIFPGNWDNHSHKKNLFETPILARYVRILPVAWHNRIALRLELLGC	glycan array binding signal (z-score)	[9]	-0.19
same	glycan array binding signal (z-score)	[10]	1.26
